# Experimental data: ChEMBL document CHEMBL5444388, “Affinity Phenotypic Cellular Literature for EUbOPEN Chemogenomic Library” (2024)
# Sequences of proteins named here, by UniProt entry; tags and fusion partners are left off. A change or cut given only in a name is not applied to a line headed by its entry.
# UniProt Q02224: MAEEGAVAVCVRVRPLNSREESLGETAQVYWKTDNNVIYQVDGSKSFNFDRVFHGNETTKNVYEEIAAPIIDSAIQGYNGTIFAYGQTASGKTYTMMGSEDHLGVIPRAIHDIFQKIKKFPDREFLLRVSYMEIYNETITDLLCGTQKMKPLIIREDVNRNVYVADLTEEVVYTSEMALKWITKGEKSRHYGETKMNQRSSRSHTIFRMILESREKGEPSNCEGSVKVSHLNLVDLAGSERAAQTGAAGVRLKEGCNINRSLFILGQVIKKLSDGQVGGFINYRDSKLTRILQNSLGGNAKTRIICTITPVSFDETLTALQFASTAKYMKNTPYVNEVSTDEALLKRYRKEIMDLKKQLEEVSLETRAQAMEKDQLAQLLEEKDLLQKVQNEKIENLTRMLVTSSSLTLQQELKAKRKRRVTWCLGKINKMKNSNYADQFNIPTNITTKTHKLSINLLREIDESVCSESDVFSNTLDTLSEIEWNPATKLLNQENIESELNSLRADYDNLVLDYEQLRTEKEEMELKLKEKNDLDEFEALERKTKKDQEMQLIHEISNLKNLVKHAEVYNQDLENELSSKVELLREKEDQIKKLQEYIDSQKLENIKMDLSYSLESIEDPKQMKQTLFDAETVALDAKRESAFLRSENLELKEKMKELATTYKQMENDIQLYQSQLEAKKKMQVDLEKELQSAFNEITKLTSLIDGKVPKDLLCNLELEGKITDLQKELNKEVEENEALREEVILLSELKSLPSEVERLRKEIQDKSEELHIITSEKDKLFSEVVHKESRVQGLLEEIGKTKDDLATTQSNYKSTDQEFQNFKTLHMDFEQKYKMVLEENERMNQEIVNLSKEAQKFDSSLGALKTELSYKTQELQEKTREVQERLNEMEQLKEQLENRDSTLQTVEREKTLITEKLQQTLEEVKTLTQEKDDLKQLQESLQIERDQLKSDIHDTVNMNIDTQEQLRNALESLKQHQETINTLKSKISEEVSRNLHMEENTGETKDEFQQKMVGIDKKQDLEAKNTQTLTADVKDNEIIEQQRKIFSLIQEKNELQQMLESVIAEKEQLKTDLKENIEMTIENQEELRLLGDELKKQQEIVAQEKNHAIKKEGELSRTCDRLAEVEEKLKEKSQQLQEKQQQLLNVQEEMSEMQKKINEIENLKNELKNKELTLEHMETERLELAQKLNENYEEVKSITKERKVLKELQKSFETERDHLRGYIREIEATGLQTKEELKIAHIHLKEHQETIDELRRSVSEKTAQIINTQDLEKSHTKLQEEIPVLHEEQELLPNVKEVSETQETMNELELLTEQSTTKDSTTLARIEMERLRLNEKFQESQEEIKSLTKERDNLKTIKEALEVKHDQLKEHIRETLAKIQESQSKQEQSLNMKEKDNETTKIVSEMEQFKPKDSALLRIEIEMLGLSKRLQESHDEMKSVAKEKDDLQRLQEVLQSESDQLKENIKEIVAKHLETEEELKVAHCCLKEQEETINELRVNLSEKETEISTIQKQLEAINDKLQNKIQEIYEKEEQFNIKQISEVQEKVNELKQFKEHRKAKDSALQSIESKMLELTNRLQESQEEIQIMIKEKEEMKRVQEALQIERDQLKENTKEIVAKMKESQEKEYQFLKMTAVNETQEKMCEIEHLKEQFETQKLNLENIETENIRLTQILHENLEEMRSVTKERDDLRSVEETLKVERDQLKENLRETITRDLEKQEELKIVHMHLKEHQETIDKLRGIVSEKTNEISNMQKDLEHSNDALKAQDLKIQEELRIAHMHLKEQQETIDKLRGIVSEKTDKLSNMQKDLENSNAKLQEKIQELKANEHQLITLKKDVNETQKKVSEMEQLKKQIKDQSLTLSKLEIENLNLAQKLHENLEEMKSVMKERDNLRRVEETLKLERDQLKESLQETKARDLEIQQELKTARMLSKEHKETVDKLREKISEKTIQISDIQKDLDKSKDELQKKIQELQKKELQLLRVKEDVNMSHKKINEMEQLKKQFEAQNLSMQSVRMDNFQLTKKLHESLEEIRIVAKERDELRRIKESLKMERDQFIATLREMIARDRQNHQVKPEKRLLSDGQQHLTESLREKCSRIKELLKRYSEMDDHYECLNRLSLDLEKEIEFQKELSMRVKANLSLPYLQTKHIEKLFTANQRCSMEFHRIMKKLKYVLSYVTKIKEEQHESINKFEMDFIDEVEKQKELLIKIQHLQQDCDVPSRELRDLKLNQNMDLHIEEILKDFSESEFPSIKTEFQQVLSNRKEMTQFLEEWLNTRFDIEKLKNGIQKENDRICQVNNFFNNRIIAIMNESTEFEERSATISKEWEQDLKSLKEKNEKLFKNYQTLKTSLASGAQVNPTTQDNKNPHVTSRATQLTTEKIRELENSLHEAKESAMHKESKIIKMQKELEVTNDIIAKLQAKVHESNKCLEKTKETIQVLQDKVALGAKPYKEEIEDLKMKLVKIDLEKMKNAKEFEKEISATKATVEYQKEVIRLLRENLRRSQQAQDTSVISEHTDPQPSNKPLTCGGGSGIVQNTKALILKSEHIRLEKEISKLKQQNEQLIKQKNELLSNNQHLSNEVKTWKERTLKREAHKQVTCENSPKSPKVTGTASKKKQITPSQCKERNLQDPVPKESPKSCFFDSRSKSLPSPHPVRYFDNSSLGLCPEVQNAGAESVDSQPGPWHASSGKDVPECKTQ
# This continues a long series; more values of the same kind are listed elsewhere.
# Experiments:
# Type in all cases: functional, cell-based
# Parameters in all cases: recommended concentration 100 nM
# [1] = target: Centromere-associated protein E (Homo sapiens) (UniProt Q02224); test: Affinity Phenotypic Cellular interaction: (Cell-growth inhibition assays (growth inhibitory effect colon cancer cell line BeWo)) EUB0000734a CENPE; conditions: Affinity Phenotypic Cellular Source Knowledge https://pubmed.ncbi.nlm.nih.gov/20167803/
# [2] = target: Centromere-associated protein E (Homo sapiens) (UniProt Q02224); test: Affinity Phenotypic Cellular interaction: (Cell-growth inhibition assays (growth inhibitory effect colon cancer cell line NCI-H358)) EUB0000734a CENPE; conditions: Affinity Phenotypic Cellular Source Knowledge https://pubmed.ncbi.nlm.nih.gov/20167803/
# [3] = target: Centromere-associated protein E (Homo sapiens) (UniProt Q02224); test: Affinity Phenotypic Cellular interaction: (Cell-growth inhibition assays (growth inhibitory effect colon cancer cell line SiHa)) EUB0000734a CENPE; conditions: Affinity Phenotypic Cellular Source Knowledge https://pubmed.ncbi.nlm.nih.gov/20167803/
# [4] = target: Centromere-associated protein E (Homo sapiens) (UniProt Q02224); test: Affinity Phenotypic Cellular interaction: (Cell-growth inhibition assays (growth inhibitory effect colon cancer cell line NCI-H716)) EUB0000734a CENPE; conditions: Affinity Phenotypic Cellular Source Knowledge https://pubmed.ncbi.nlm.nih.gov/20167803/
# [5] = target: Centromere-associated protein E (Homo sapiens) (UniProt Q02224); test: Affinity Phenotypic Cellular interaction: (Cell-growth inhibition assays (growth inhibitory effect colon cancer cell line NCI-H1299)) EUB0000734a CENPE; conditions: Affinity Phenotypic Cellular Source Knowledge https://pubmed.ncbi.nlm.nih.gov/20167803/
# [6] = target: Centromere-associated protein E (Homo sapiens) (UniProt Q02224); test: Affinity Phenotypic Cellular interaction: (Cell-growth inhibition assays (growth inhibitory effect colon cancer cell line 639-V)) EUB0000734a CENPE; conditions: Affinity Phenotypic Cellular Source Knowledge https://pubmed.ncbi.nlm.nih.gov/20167803/
# [7] = target: Centromere-associated protein E (Homo sapiens) (UniProt Q02224); test: Affinity Phenotypic Cellular interaction: (Cell-growth inhibition assays (growth inhibitory effect colon cancer cell line AN3CA)) EUB0000734a CENPE; conditions: AN3-CA, Affinity Phenotypic Cellular Source Knowledge https://pubmed.ncbi.nlm.nih.gov/20167803/
# [8] = target: Centromere-associated protein E (Homo sapiens) (UniProt Q02224); test: Affinity Phenotypic Cellular interaction: (Cell-growth inhibition assays (growth inhibitory effect colon cancer cell line BE2-C)) EUB0000734a CENPE; conditions: BE(2)-C, Affinity Phenotypic Cellular Source Knowledge https://pubmed.ncbi.nlm.nih.gov/20167803/
# [9] = target: Centromere-associated protein E (Homo sapiens) (UniProt Q02224); test: Affinity Phenotypic Cellular interaction: (Cell-growth inhibition assays (growth inhibitory effect colon cancer cell line OVCAR-4)) EUB0000734a CENPE; conditions: Affinity Phenotypic Cellular Source Knowledge https://pubmed.ncbi.nlm.nih.gov/20167803/
# [10] = target: Centromere-associated protein E (Homo sapiens) (UniProt Q02224); test: Affinity Phenotypic Cellular interaction: (Cell-growth inhibition assays (growth inhibitory effect colon cancer cell line NCI-H23)) EUB0000734a CENPE; conditions: Affinity Phenotypic Cellular Source Knowledge https://pubmed.ncbi.nlm.nih.gov/20167803/
# [11] = target: Centromere-associated protein E (Homo sapiens) (UniProt Q02224); test: Affinity Phenotypic Cellular interaction: (Cell-growth inhibition assays (growth inhibitory effect colon cancer cell line SCLC-3)) EUB0000734a CENPE; conditions: NL-SCLC3, Affinity Phenotypic Cellular Source Knowledge https://pubmed.ncbi.nlm.nih.gov/20167803/
# [12] = target: Centromere-associated protein E (Homo sapiens) (UniProt Q02224); test: Affinity Phenotypic Cellular interaction: (Cell-growth inhibition assays (growth inhibitory effect colon cancer cell line DU4475)) EUB0000734a CENPE; conditions: DU-4475, Affinity Phenotypic Cellular Source Knowledge https://pubmed.ncbi.nlm.nih.gov/20167803/
# [13] = target: Centromere-associated protein E (Homo sapiens) (UniProt Q02224); test: Affinity Phenotypic Cellular interaction: (Cell-growth inhibition assays (growth inhibitory effect colon cancer cell line HCT116)) EUB0000734a CENPE; conditions: HCT-116, Affinity Phenotypic Cellular Source Knowledge https://pubmed.ncbi.nlm.nih.gov/20167803/
# [14] = target: Centromere-associated protein E (Homo sapiens) (UniProt Q02224); test: Affinity Phenotypic Cellular interaction: (Cell-growth inhibition assays (growth inhibitory effect colon cancer cell line Hep3B)) EUB0000734a CENPE; conditions: Hep 3B2, Affinity Phenotypic Cellular Source Knowledge https://pubmed.ncbi.nlm.nih.gov/20167803/
# [15] = target: Centromere-associated protein E (Homo sapiens) (UniProt Q02224); test: Affinity Phenotypic Cellular interaction: (Cell-growth inhibition assays (growth inhibitory effect colon cancer cell line SK-LMS-1)) EUB0000734a CENPE; conditions: Affinity Phenotypic Cellular Source Knowledge https://pubmed.ncbi.nlm.nih.gov/20167803/
# [16] = target: Centromere-associated protein E (Homo sapiens) (UniProt Q02224); test: Affinity Phenotypic Cellular interaction: (Cell-growth inhibition assays (growth inhibitory effect colon cancer cell line M14)) EUB0000734a CENPE; conditions: Affinity Phenotypic Cellular Source Knowledge https://pubmed.ncbi.nlm.nih.gov/20167803/
# [17] = target: Centromere-associated protein E (Homo sapiens) (UniProt Q02224); test: Affinity Phenotypic Cellular interaction: (Cell-growth inhibition assays (growth inhibitory effect colon cancer cell line HPAFII)) EUB0000734a CENPE; conditions: HPAF-II, Affinity Phenotypic Cellular Source Knowledge https://pubmed.ncbi.nlm.nih.gov/20167803/
# [18] = target: Centromere-associated protein E (Homo sapiens) (UniProt Q02224); test: Affinity Phenotypic Cellular interaction: (Cell-growth inhibition assays (growth inhibitory effect colon cancer cell line GCT)) EUB0000734a CENPE; conditions: Affinity Phenotypic Cellular Source Knowledge https://pubmed.ncbi.nlm.nih.gov/20167803/
# [19] = target: Centromere-associated protein E (Homo sapiens) (UniProt Q02224); test: Affinity Phenotypic Cellular interaction: (Cell-growth inhibition assays (growth inhibitory effect colon cancer cell line DU145)) EUB0000734a CENPE; conditions: DU-145, Affinity Phenotypic Cellular Source Knowledge https://pubmed.ncbi.nlm.nih.gov/20167803/
# [20] = target: Centromere-associated protein E (Homo sapiens) (UniProt Q02224); test: Affinity Phenotypic Cellular interaction: (Cell-growth inhibition assays (growth inhibitory effect colon cancer cell line SH-4)) EUB0000734a CENPE; conditions: Affinity Phenotypic Cellular Source Knowledge https://pubmed.ncbi.nlm.nih.gov/20167803/
# [21] = target: Centromere-associated protein E (Homo sapiens) (UniProt Q02224); test: Affinity Phenotypic Cellular interaction: (Cell-growth inhibition assays (growth inhibitory effect colon cancer cell line RPMI2650)) EUB0000734a CENPE; conditions: RPMI-2650, Affinity Phenotypic Cellular Source Knowledge https://pubmed.ncbi.nlm.nih.gov/20167803/
# [22] = target: Centromere-associated protein E (Homo sapiens) (UniProt Q02224); test: Affinity Phenotypic Cellular interaction: (Cell-growth inhibition assays (growth inhibitory effect colon cancer cell line A427)) EUB0000734a CENPE; conditions: A-427, Affinity Phenotypic Cellular Source Knowledge https://pubmed.ncbi.nlm.nih.gov/20167803/
# [23] = target: Centromere-associated protein E (Homo sapiens) (UniProt Q02224); test: Affinity Phenotypic Cellular interaction: (Cell-growth inhibition assays (growth inhibitory effect colon cancer cell line MC/CAR)) EUB0000734a CENPE; conditions: Affinity Phenotypic Cellular Source Knowledge https://pubmed.ncbi.nlm.nih.gov/20167803/
# [24] = target: Centromere-associated protein E (Homo sapiens) (UniProt Q02224); test: Affinity Phenotypic Cellular interaction: (Cell-growth inhibition assays (growth inhibitory effect colon cancer cell line CGTH-W-1)) EUB0000734a CENPE; conditions: Affinity Phenotypic Cellular Source Knowledge https://pubmed.ncbi.nlm.nih.gov/20167803/
# [25] = target: Centromere-associated protein E (Homo sapiens) (UniProt Q02224); test: Affinity Phenotypic Cellular interaction: (Cell-growth inhibition assays (growth inhibitory effect colon cancer cell line BC-1)) EUB0000734a CENPE; conditions: BC1, Affinity Phenotypic Cellular Source Knowledge https://pubmed.ncbi.nlm.nih.gov/20167803/
# [26] = target: Centromere-associated protein E (Homo sapiens) (UniProt Q02224); test: Affinity Phenotypic Cellular interaction: (Cell-growth inhibition assays (growth inhibitory effect colon cancer cell line DBTRG-05MG)) EUB0000734a CENPE; conditions: Affinity Phenotypic Cellular Source Knowledge https://pubmed.ncbi.nlm.nih.gov/20167803/
# [27] = target: Centromere-associated protein E (Homo sapiens) (UniProt Q02224); test: Affinity Phenotypic Cellular interaction: (Cell-growth inhibition assays (growth inhibitory effect colon cancer cell line NCI-H460)) EUB0000734a CENPE; conditions: Affinity Phenotypic Cellular Source Knowledge https://pubmed.ncbi.nlm.nih.gov/20167803/
# [28] = target: Centromere-associated protein E (Homo sapiens) (UniProt Q02224); test: Affinity Phenotypic Cellular interaction: (Cell-growth inhibition assays (growth inhibitory effect colon cancer cell line NCI-H82)) EUB0000734a CENPE; conditions: Affinity Phenotypic Cellular Source Knowledge https://pubmed.ncbi.nlm.nih.gov/20167803/
# [29] = target: Centromere-associated protein E (Homo sapiens) (UniProt Q02224); test: Affinity Phenotypic Cellular interaction: (Cell-growth inhibition assays (growth inhibitory effect colon cancer cell line NCI-H630)) EUB0000734a CENPE; conditions: Affinity Phenotypic Cellular Source Knowledge https://pubmed.ncbi.nlm.nih.gov/20167803/
# [30] = target: Centromere-associated protein E (Homo sapiens) (UniProt Q02224); test: Affinity Phenotypic Cellular interaction: (Cell-growth inhibition assays (growth inhibitory effect colon cancer cell line RD-ES)) EUB0000734a CENPE; conditions: Affinity Phenotypic Cellular Source Knowledge https://pubmed.ncbi.nlm.nih.gov/20167803/
# [31] = target: Centromere-associated protein E (Homo sapiens) (UniProt Q02224); test: Affinity Phenotypic Cellular interaction: (Cell-growth inhibition assays (growth inhibitory effect colon cancer cell line SW-684)) EUB0000734a CENPE; conditions: SW684, Affinity Phenotypic Cellular Source Knowledge https://pubmed.ncbi.nlm.nih.gov/20167803/
# [32] = target: Centromere-associated protein E (Homo sapiens) (UniProt Q02224); test: Affinity Phenotypic Cellular interaction: (Cell-growth inhibition assays (growth inhibitory effect colon cancer cell line T84)) EUB0000734a CENPE; conditions: Affinity Phenotypic Cellular Source Knowledge https://pubmed.ncbi.nlm.nih.gov/20167803/
# [33] = target: Centromere-associated protein E (Homo sapiens) (UniProt Q02224); test: Affinity Phenotypic Cellular interaction: (Cell-growth inhibition assays (growth inhibitory effect colon cancer cell line NCI-H2122)) EUB0000734a CENPE; conditions: Affinity Phenotypic Cellular Source Knowledge https://pubmed.ncbi.nlm.nih.gov/20167803/
# [34] = target: Centromere-associated protein E (Homo sapiens) (UniProt Q02224); test: Affinity Phenotypic Cellular interaction: (Cell-growth inhibition assays (growth inhibitory effect colon cancer cell line A-498)) EUB0000734a CENPE; conditions: A498, Affinity Phenotypic Cellular Source Knowledge https://pubmed.ncbi.nlm.nih.gov/20167803/
structure (smiles),measurement,setting,value
CC(C)Oc1ccc(C(=O)N[C@H](CNC(=O)CN(C)C)Cc2ccc(-c3cn4cccc([C@H](C)O)c4n3)cc2)cc1Cl,GIC50,[1],26 nM
same,GIC50,[2],18 nM
same,GIC50,[3],29 nM
same,GIC50,[4],174 nM
same,GIC50,[5],52 nM
same,GIC50,[6],27 nM
same,GIC50,[7],23 nM
same,GIC50,[8],93 nM
same,GIC50,[9],30 nM
same,GIC50,[10],27 nM
same,GIC50,[11],31 nM
same,GIC50,[12],147 nM
same,GIC50,[13],31 nM
same,GIC50,[14],164 nM
same,GIC50,[15],30 nM
same,GIC50,[16],27 nM
same,GIC50,[17],5.03 µM
same,GIC50,[18],23 nM
same,GIC50,[19],23 nM
same,GIC50,[20],44 nM
same,GIC50,[21],36 nM
same,GIC50,[22],97 nM
same,GIC50,[23],86 nM
same,GIC50,[24],30 nM
same,GIC50,[25],83 nM
same,GIC50,[26],17 nM
same,GIC50,[27],29 nM
same,GIC50,[28],18 nM
same,GIC50,[29],47 nM
same,GIC50,[30],63 nM
same,GIC50,[31],5.02 µM
same,GIC50,[32],75 nM
same,GIC50,[33],29 nM
same,GIC50,[34],81 nM
